# From the supplement of paper PMC4604168 (melanoma cell lines)
# The other results are listed elsewhere or left out. Repeats are few or missing, and single values can be far off.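 Imaging used 1,536-well plates; nuclei positive for cleaved PARP by antibody were divided by total DNA-stained nuclei to yield the apoptosis fraction. Doses for screening kept most cells viable, and cell lines differ markedly in resting and induced cleaved-PARP levels.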
# Legend:
# Test in all cases: cleaved PARP positive nuclei fraction relative to DMSO control; melanoma cells; higher = more apoptosis
# Settings in all cases: library dose: low library concentration; 72 h
# [1] = tested on: MeWo
# [2] = tested on: RPMI7951
# [3] = tested on: RVH-421
# [4] = tested on: SkMel28
# [5] = tested on: SkMel30
# [6] = tested on: UACC62
# [7] = tested on: WM115
# [8] = tested on: WM1716
# [9] = tested on: WM1745
# [10] = tested on: WM3526
# [11] = tested on: WM3619
# [12] = tested on: WM451Lu
# [13] = tested on: SkMel5
# [14] = tested on: UACC257
# [15] = tested on: SkMel2
Compound,cleaved PARP positive nuclei fraction [1] [%],cleaved PARP positive nuclei fraction [2] [%],cleaved PARP positive nuclei fraction [3] [%],cleaved PARP positive nuclei fraction [4] [%],cleaved PARP positive nuclei fraction [5] [%],cleaved PARP positive nuclei fraction [6] [%],cleaved PARP positive nuclei fraction [7] [%],cleaved PARP positive nuclei fraction [8] [%],cleaved PARP positive nuclei fraction [9] [%],cleaved PARP positive nuclei fraction [10] [%],cleaved PARP positive nuclei fraction [11] [%],cleaved PARP positive nuclei fraction [12] [%],cleaved PARP positive nuclei fraction [13] [%],cleaved PARP positive nuclei fraction [14] [%],cleaved PARP positive nuclei fraction [15] [%]
"CNC(=O)c1cc(Oc2ccc(NC(=O)Nc3ccc(Cl)c(C(F)(F)F)c3)cc2)ccn1 [sorafenib] + COCC[n+]1c2c(n(Cc3cnccn3)c1C)C(=O)c1ccccc1C2=O [YM155] (first compound 0.4 µM, partner dose 0.0004 µM)",31,61.8,223,39.1,46.3,112,96.4,72.4,86.7,139,176,135,,,
"CO[C@H]1C[C@@H]2CC[C@@H](C)[C@@](O)(O2)C(=O)C(=O)N2CCCC[C@H]2C(=O)O[C@H]([C@H](C)C[C@@H]2CC[C@@H](OCCO)[C@H](OC)C2)CC(=O)[C@H](C)/C=C(\C)[C@@H](O)[C@@H](OC)C(=O)[C@H](C)C[C@H](C)/C=C/C=C/C=C/1C [everolimus] + Cc1ccc(NC(=O)c2cccc(N(C)C)c2)cc1NC(=O)c1ccc(O)cc1 [ZM336372] (first compound 0.02 µM, partner dose 2 µM)",77.3,151,90.7,104,111,123,504,85.3,121,86.6,150,72.5,60.8,186,
"C[C@@H](Oc1cc(-c2cnn(C3CCNCC3)c2)cnc1N)c1c(Cl)ccc(F)c1Cl [Crizotinib] + COc1cc(Nc2ncc(F)c(Nc3ccc4c(n3)NC(=O)C(C)(C)O4)n2)cc(OC)c1OC [Tamatinib] (first compound 0.2 µM, partner dose 0.4 µM)",84,71.5,80.3,102,74.8,230,50.6,75,145,137,89.3,57.8,39.8,179,
"CCCS(=O)(=O)Nc1ccc(F)c(C(=O)c2c[nH]c3ncc(Cl)cc23)c1F + COc1cc2c(Oc3ccc4[nH]c(C)cc4c3F)ncnc2cc1OCCCN1CCCC1 [cediranib] (first compound 0.08 µM, partner dose 0.4 µM)",41.1,98.4,97.4,107,156,226,165,35.4,109,72.7,78.7,131,73.6,112,
"CCCS(=O)(=O)Nc1ccc(F)c(C(=O)c2c[nH]c3ncc(Cl)cc23)c1F + Cc1cc(N2CCOCC2)cc2[nH]c(-c3c(NC[C@@H](O)c4cccc(Cl)c4)cc[nH]c3=O)nc12 [BMS536924] (first compound 0.08 µM, partner dose 0.2 µM)",213,160,183,35.4,158,125,242,87,115,102,103,33.7,76.1,41.5,
"CC(C)C[C@H](NC(=O)[C@H](Cc1ccccc1)NC(=O)c1cnccn1)B(O)O [Bortezomib] + Clc1ccc(Nc2nnc(Cc3ccncc3)c3ccccc23)cc1 [vatalanib] (first compound 0.001 µM, partner dose 2 µM)",117,305,247,77.3,73.7,57,73.5,622,182,84.3,848,95.4,,,104
"CC(C)C[C@H](NC(=O)[C@H](Cc1ccccc1)NC(=O)c1cnccn1)B(O)O [Bortezomib] + Cn1cncc1[C@@](N)(c1ccc(Cl)cc1)c1ccc2c(c1)c(-c1cccc(Cl)c1)cc(=O)n2C [tipifarnib] (first compound 0.001 µM, partner dose 0.01 µM)",176,105,300,71.2,74.2,298,77.4,529,170,161,439,244,70.2,104,
"Cn1c(=O)n(-c2ccc(C(C)(C)C#N)cc2)c2c3cc(-c4cnc5ccccc5c4)ccc3ncc21 + CNC(=O)c1cc(Oc2ccc(NC(=O)Nc3ccc(Cl)c(C(F)(F)F)c3)cc2)ccn1 [sorafenib] (first compound 0.004 µM, partner dose 0.4 µM)",199,71,73.7,145,89,82.3,114,346,96.3,47.6,93.5,83.7,,,126
"C[C@@H](Oc1cc(-c2cnn(C3CCNCC3)c2)cnc1N)c1c(Cl)ccc(F)c1Cl [Crizotinib] + Nc1nc(F)nc2c1ncn2[C@@H]1O[C@H](CO)[C@@H](O)[C@@H]1O [fludarabine] (first compound 0.2 µM, partner dose 0.2 µM)",462,87,59.4,47,2900,161,161,78.2,80.3,706,68.4,76.4,,,335
"Cc1cc(Nc2cc(N3CCN(C)CC3)nc(/C=C/c3ccccc3)n2)n[nH]1 + Cn1c(Nc2ccc(C(F)(F)F)cc2)nc2cc(Oc3ccnc(-c4ncc(C(F)(F)F)[nH]4)c3)ccc21 [CHIR265] (first compound 0.04 µM, partner dose 0.08 µM)",189,397,135,139,70.2,75.1,827,269,118,281,123,365,,,
"Cn1c(=O)n(-c2ccc(C(C)(C)C#N)cc2)c2c3cc(-c4cnc5ccccc5c4)ccc3ncc21 + O=C(O)[C@@H]1[O][Sb](=[O])([O][Sb]2(=[O])[O][C@H]([C@H](O)CO)[C@H](O)[C@H](C(=O)O)[O]2)[O][C@H]([C@H](O)CO)[C@@H]1O [stibogluconate] (first compound 0.004 µM, partner dose 2 µM)",108,107,99,152,640,40.1,90.7,64.4,88.5,80.6,78.1,494,,,108
"CO[C@H]1C[C@@H]2CC[C@@H](C)[C@@](O)(O2)C(=O)C(=O)N2CCCC[C@H]2C(=O)O[C@H]([C@H](C)C[C@@H]2CC[C@@H](OCCO)[C@H](OC)C2)CC(=O)[C@H](C)/C=C(\C)[C@@H](O)[C@@H](OC)C(=O)[C@H](C)C[C@H](C)/C=C/C=C/C=C/1C [everolimus] + OCCn1cc(-c2cnc3nnn(Cc4ccc5ncccc5c4)c3n2)cn1 [PF04217903] (first compound 0.02 µM, partner dose 1 µM)",130,63.6,95,342,630,396,62.3,134,286,58.3,148,62.4,139,178,

# Exported as tab-separated lines: entries from further up
Compound	cleaved PARP positive nuclei fraction [1] [%]	cleaved PARP positive nuclei fraction [2] [%]	cleaved PARP positive nuclei fraction [3] [%]	cleaved PARP positive nuclei fraction [4] [%]	cleaved PARP positive nuclei fraction [5] [%]	cleaved PARP positive nuclei fraction [6] [%]	cleaved PARP positive nuclei fraction [7] [%]	cleaved PARP positive nuclei fraction [8] [%]	cleaved PARP positive nuclei fraction [9] [%]	cleaved PARP positive nuclei fraction [10] [%]	cleaved PARP positive nuclei fraction [11] [%]	cleaved PARP positive nuclei fraction [12] [%]	cleaved PARP positive nuclei fraction [13] [%]	cleaved PARP positive nuclei fraction [14] [%]	cleaved PARP positive nuclei fraction [15] [%]
CC(C)C[C@H](NC(=O)[C@H](Cc1ccccc1)NC(=O)c1cnccn1)B(O)O [Bortezomib] + Clc1ccc(Nc2nnc(Cc3ccncc3)c3ccccc23)cc1 [vatalanib] (first compound 0.001 µM, partner dose 2 µM)	117	305	247	77.3	73.7	57	73.5	622	182	84.3	848	95.4			104
CC(C)C[C@H](NC(=O)[C@H](Cc1ccccc1)NC(=O)c1cnccn1)B(O)O [Bortezomib] + Cn1cncc1[C@@](N)(c1ccc(Cl)cc1)c1ccc2c(c1)c(-c1cccc(Cl)c1)cc(=O)n2C [tipifarnib] (first compound 0.001 µM, partner dose 0.01 µM)	176	105	300	71.2	74.2	298	77.4	529	170	161	439	244	70.2	104	
Cn1c(=O)n(-c2ccc(C(C)(C)C#N)cc2)c2c3cc(-c4cnc5ccccc5c4)ccc3ncc21 + CNC(=O)c1cc(Oc2ccc(NC(=O)Nc3ccc(Cl)c(C(F)(F)F)c3)cc2)ccn1 [sorafenib] (first compound 0.004 µM, partner dose 0.4 µM)	199	71	73.7	145	89	82.3	114	346	96.3	47.6	93.5	83.7			126
